Results of single-concentration screens

By UniProt entry, the sequences of proteins in these tests, tags left out. Residues count along the entry.
UniProt I6X8D2, whole entry: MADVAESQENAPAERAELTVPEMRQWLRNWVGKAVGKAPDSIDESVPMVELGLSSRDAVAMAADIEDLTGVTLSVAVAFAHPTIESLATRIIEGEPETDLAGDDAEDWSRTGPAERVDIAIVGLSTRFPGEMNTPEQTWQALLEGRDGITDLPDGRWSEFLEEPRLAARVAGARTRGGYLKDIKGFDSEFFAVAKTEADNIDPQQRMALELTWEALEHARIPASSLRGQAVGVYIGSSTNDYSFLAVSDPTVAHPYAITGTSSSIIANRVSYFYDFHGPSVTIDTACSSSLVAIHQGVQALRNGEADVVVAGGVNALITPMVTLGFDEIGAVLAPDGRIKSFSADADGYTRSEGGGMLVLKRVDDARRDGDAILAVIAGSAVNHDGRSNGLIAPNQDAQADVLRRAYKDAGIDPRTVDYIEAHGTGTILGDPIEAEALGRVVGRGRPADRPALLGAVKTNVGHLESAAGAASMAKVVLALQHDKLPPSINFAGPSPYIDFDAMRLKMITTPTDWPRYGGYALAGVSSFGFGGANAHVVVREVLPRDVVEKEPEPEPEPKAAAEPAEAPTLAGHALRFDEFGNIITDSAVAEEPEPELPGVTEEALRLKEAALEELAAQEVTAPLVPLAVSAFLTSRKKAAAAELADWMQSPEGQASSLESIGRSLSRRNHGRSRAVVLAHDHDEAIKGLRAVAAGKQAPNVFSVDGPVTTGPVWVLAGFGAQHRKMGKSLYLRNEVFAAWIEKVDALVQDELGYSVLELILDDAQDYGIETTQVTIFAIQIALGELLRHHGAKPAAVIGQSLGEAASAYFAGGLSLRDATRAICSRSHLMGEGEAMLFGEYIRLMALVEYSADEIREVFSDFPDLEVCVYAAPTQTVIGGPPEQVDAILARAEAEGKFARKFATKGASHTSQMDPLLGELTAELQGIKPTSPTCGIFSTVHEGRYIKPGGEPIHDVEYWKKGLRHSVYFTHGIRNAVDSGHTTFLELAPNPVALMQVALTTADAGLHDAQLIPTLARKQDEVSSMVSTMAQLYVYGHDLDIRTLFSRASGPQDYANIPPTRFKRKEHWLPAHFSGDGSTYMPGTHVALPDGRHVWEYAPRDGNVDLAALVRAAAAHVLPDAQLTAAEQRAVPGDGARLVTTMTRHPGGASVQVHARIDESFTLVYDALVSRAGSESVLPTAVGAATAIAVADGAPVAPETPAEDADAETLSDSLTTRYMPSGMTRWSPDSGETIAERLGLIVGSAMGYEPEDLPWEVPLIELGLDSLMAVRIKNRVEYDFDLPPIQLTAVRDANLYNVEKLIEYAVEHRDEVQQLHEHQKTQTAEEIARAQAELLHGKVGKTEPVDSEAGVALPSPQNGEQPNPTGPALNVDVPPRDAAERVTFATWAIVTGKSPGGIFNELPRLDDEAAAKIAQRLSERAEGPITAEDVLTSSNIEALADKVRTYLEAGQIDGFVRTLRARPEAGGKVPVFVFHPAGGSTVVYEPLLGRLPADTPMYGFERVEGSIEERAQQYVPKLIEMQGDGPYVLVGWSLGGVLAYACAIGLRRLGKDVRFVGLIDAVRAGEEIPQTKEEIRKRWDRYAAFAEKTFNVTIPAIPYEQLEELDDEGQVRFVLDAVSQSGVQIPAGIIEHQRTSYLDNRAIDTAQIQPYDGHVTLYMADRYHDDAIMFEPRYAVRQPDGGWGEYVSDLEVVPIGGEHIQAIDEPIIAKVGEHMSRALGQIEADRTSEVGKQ
UniProt Q4DA54, 1-478: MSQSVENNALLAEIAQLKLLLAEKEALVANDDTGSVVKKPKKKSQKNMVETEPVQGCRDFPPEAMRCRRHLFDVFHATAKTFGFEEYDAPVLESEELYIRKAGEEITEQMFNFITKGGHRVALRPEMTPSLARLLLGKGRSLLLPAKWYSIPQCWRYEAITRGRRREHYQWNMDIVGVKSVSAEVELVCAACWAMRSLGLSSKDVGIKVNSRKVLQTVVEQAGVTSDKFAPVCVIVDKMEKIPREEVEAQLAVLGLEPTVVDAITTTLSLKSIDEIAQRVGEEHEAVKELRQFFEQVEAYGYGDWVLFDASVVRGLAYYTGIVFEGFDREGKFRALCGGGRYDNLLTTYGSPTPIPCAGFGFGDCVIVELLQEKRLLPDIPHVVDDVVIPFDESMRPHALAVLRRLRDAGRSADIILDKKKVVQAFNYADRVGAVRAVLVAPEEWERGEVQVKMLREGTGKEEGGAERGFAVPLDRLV
UniProt P9WFT3, whole entry: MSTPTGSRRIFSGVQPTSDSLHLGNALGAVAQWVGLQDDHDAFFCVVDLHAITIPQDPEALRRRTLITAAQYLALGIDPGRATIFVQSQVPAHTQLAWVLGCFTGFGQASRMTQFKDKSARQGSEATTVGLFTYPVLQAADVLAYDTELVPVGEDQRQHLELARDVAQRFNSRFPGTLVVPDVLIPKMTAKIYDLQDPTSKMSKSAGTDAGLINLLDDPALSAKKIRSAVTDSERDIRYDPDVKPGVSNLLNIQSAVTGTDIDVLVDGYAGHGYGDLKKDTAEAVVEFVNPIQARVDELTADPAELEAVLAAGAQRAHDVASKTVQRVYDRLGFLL
UniProt P9WPC5, whole entry: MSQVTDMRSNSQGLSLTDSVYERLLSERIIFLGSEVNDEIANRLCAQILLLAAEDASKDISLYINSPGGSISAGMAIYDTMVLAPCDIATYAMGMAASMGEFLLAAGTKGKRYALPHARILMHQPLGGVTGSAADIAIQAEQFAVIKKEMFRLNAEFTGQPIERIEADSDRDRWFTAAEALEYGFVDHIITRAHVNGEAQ
UniProt P9WPC3, whole entry partner: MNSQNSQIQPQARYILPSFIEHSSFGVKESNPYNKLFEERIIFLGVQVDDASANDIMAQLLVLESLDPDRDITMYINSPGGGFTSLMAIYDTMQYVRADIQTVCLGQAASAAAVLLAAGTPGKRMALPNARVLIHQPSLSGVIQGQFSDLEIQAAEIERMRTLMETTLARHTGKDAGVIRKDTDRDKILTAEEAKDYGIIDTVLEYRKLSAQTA

From ChEMBL document CHEMBL3988442, “University of Dundee, Small-Polar-MMV Screening Library” (2021).

A: 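Enzyme assay of the thioesterase domain of polyketide synthase 13; the read-out is not stated. Target: Polyketide synthase Pks13, Mycobacterium tuberculosis (UniProt I6X8D2). Tested at 30 µM. Higher reads as stronger inhibition (inferred from which compounds were picked for retests). Size under these conditions: about 67,000 compounds, about 300 of them at 50% or above in at least one test.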
B: 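Histidine-tRNA ligase, Trypanosoma cruzi CL Brener (UniProt Q4DA54). Enzyme assay of histidyl-tRNA synthetase; the read-out is not stated. Tested at 30 µM. The record gives no direction; compounds that gave an IC50 in retests scored well above the rest, so higher reads as stronger inhibition. About 69,000 compounds were tested under these conditions; 0.045% (about 31) showed 50% or more at least once.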
C: 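Enzyme assay of tryptophanyl-tRNA synthetase; the read-out is not stated. Target: Tryptophan-tRNA ligase, Mycobacterium tuberculosis (UniProt P9WFT3). Tested at 10 µM. Higher most likely means stronger inhibition; the record gives no direction and few retests gave an IC50. Of about 65,000 compounds tested this way, about 64 (0.098%) reached 50% or more in at least one test.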
D: 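Protease assay of ClpP1P2, read by the AMC dye that it sets free. Target: ClpP1P2, Mycobacterium tuberculosis (UniProt P9WPC5 and UniProt P9WPC3). Concentration: 50 µM. Direction is inferred from only a few compounds that gave an IC50; most scored high, so higher reads as stronger inhibition. Most other retested compounds had strongly negative values. About 69,000 compounds were tested under these conditions; 0.015% (about 10) showed 50% or more at least once.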

Values are the deposited “Percent Effect”, in %. The record does not define 0% and 100%; most values in the screen are far below 50% and negative numbers occur (in some assays of this library far below -100). Compounds were drawn at random from those tested, without regard to their results.

* Cc1ccc(-c2ccnc3cc(CC(=O)N4CCN(C)CC4)nn23)cc1 : A: 10.32%; B: 4.52%; D: 2.526%
* Cc1cnn(CCCNC(=O)NCCS(=O)(=O)Nc2ccccc2)c1 : A: 13.38%; B: 10.45%; C: 2.142%; D: -9.575%
* O=C1OCCN1CCS(=O)(=O)c1cccc(Cl)c1 : A: -39.02%; B: 7.895%; C: -0.2064%; D: -6.926%
* CNC(=O)c1cc(C2CCCNC2)n[nH]1 (stereo not drawn) : A: -14.71%; B: 1.88%; C: 10.07%; D: -13.49%
* O=C(NC1CC1)c1cc(Cl)ccc1-n1cnnn1 : A: -24.84%; B: -9.783%; C: 3.431%; D: 7.265%
* Cc1nc(C2CCCN2Cc2nnc(C3CC3)o2)no1 (stereo not drawn) : A: -12.1%; B: 2.682%; C: -2.041%; D: 15.04%
* COc1cc(CNCc2ccnc(N3CCOCC3)c2)cc(OC)c1 : A: -12.21%; B: 1.744%; C: 11.01%; D: 3.421%
* CC(C)n1cnnc1Cn1c(=O)cnc2ccccc21 : A: -14.32%; B: 9.948%; C: -1.308%; D: -4.11%
* COCCN1CCC2(CCN(C(=O)c3ccc(F)cc3)CC2)C1=O : A: -42.13%; B: 0.4808%; C: 3.317%; D: -4.195%
* Cc1cc(C)cc(N(C)S(=O)(=O)c2cc(C(=O)O)cs2)c1 : A: 0.5196%; B: 2.256%; C: -3.521%; D: 10.25%
* Cc1cccc2c1NC1(CCCC1)NC2=O : A: -9.539%; B: 2.924%; C: 1.05%; D: -70.62%
* Cc1cccc(-n2nnnc2C(C)(C)Nc2ccccc2C)c1 : A: 71.15%; B: 0%; C: -0.2154%; D: -18.42%
* CCN(CC)c1ncccc1CNCc1cc2ccccc2s1 : A: -4.638%; B: 10.05%; C: 4.088%; D: -11.37%
* Cc1ccc(C)c(OCc2cc(C(=O)N(C)Cc3nonc3C)no2)c1 : A: 28.68%; B: -11.17%; C: 1.213%; D: -3.314%
* CN(C)CCNC(=O)[C@H]1C[C@@H]2CN(C(=O)NC3CCCC3)C[C@H]1O2 : A: 4.138%; B: 7.595%; C: -2.913%; D: 7.486%
* COc1cccc2ncn(C(C)Cn3cccn3)c(=O)c12 (stereo not drawn) : A: -5.923%; B: 5.6%; C: 0.6441%; D: -7.58%
* O=C(c1cccnc1OCC(F)(F)F)N1CCCn2ncnc21 : A: -25.19%; B: 3.03%; C: 2.624%; D: 6.789%
* CCCN1Cc2ccccc2CC1C(=O)NC (stereo not drawn) : A: -21.77%; B: 2.128%; C: -3.549%; D: -6.861%
* CNC(=O)[C@@H](C1CC1)N1CCC[C@H]1C(=O)NCC(C)C : A: -9.571%; B: -2.97%; C: 2.334%; D: 4.267%
* CCOCCNC(=O)c1cc(COc2cncc(Cl)c2)on1 : A: 8.792%; B: 8.671%; C: -2.564%; D: -5.37%

Repeated from the top, 2 entries:

Cc1ccc(-c2ccnc3cc(CC(=O)N4CCN(C)CC4)nn23)cc1 gave A: 10.32%; B: 4.52%; D: 2.526%.
Cc1cnn(CCCNC(=O)NCCS(=O)(=O)Nc2ccccc2)c1 gave A: 13.38%; B: 10.45%; C: 2.142%; D: -9.575%.